# Test results as given in the supplement of paper PMC3334620.
# Whole data set: some 33,000 sequences, median “E-score (-0.5 to 0.5)” near -0.0034, cut for the highest 2% near 0.25. This is one part of the list.
# Target: T1, Yap3 (UniProt P38749)
# T1 sequence: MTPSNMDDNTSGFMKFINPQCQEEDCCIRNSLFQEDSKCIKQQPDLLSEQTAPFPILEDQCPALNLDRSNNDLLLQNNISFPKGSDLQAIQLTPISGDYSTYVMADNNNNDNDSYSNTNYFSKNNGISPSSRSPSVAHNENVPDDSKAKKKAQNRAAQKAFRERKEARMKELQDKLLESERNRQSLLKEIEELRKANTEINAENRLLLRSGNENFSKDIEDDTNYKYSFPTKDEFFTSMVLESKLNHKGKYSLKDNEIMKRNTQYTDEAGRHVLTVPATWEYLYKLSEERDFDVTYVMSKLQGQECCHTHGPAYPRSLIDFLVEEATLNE
# Test: PBM E-score (8-mer binding enrichment) (E-score (-0.5 to 0.5)); higher = stronger / more preferred TF binding
# Conditions: protein concentration: 100 nM; construct: GST-full length
# Description: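 Universal 'all 10-mer' protein binding microarrays (Agilent AMADID 015681) probed with GST-tagged S. cerevisiae TFs (full-length or DBD) made by in vitro transcription/translation (PURExpress), about 100-200 nM. Bound TF was detected with fluorescent anti-GST. Each ungapped 8-mer (which stands for itself and its reverse complement) is scored by the PBM enrichment score (E-score), a modified Wilcoxon-Mann-Whitney statistic from -0.5 to +0.5, computed with the Universal PBM Analysis Suite. Scale: above 0.35 generally sequence-specific binding.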
row,Sequence,PBM E-score
1,CGGATGAG,-0.0331
2,AGACAACG,0.074
3,AAAAGAGA,0.121
4,AATTATAC,0.26
5,GCGTGATA,0.137
6,CAATGACC,-0.134
7,CACTAAGG,-0.121
8,ACACATAT,0.155
9,CTGAGGTA,-0.0199
10,ACTTCATA,0.108
11,CACGGATA,0.291
12,ACAGTGCA,0.0775
13,AAAGTGCC,-0.251
14,CATTGTTC,0.125
15,GCTATTGA,-0.00647
16,AATAGCCG,0.0258
17,AACATCCG,0.069
18,GTTGCTTA,0.166
19,CGAGTTTA,0.0811
20,AACTTTGC,-0.0487
21,CCACTTTA,0.171
22,CCCTAACG,-0.0642
23,AAACCGAA,-0.0751
24,CCAAATTA,0.192
25,GCGTGTTA,-0.00985

# Four entries from above, tab-delimited.
row	Sequence	PBM E-score
11	CACGGATA	0.291
13	AAAGTGCC	-0.251
14	CATTGTTC	0.125
15	GCTATTGA	-0.00647

# Additional results.

row,Sequence,PBM E-score
1,ACCATCGC,0.116
2,ACTTTTGA,0.118
3,CGACTTCA,-0.00627
4,ACACACTG,-0.0799
5,ACAATACG,0.0668
6,ACTGCAAG,-0.124
7,CCAGAGTA,-0.0215
8,CTGCCAGC,-0.224
9,GGAGAGTA,-0.046
10,CACTTATA,0.0806
11,TCTTAGAA,0.0708
12,GCCTCGCA,-0.0351
13,AATCCACT,0.0555
14,CTAAGGCC,-0.252
15,CATGTAAG,0.155
16,CCGAGGAA,-0.0542
17,ACGTGTCT,-0.0736
18,CCCAACCG,-0.161
19,AGGATTGG,-0.102
20,AGAGATCG,-0.106
21,AACCGCTC,-0.0667
22,AGAAGCAA,0.138
23,CACAAGTA,-0.0241
24,CACCCCAA,0.0621
25,CCCGTTTA,0.0936

row,Sequence,PBM E-score
1,ACAAATAG,0.202
2,CCCTGCCA,-0.19
3,CCAGGCAG,-0.115
4,AAATCGTT,0.182
5,ACAGAGCT,-0.258
6,CCGGGGGC,-0.383
7,CCGTATAA,0.0935
8,CAGTCAGA,0.0303
9,TACCTTAA,-0.00521
10,ACGTTTTA,0.148
11,GACTATAC,0.216
12,ATTTTAAA,0.282
13,CTCCTATC,-0.00854
14,ATGCGGGA,0.0303
15,GTGTAAAA,0.152
16,AAGTAGGT,-0.0577
17,GCCTTTAC,0.0482
18,AATACACT,0.259
19,GGTATTGA,0.0614
20,AGTGGGCC,-0.209
21,GTTGGGCA,0.0234
22,CTTGCCAC,-0.0801
23,AGTGCTTA,0.0381
24,GGTCTATA,0.0835
25,TCAAACAA,0.101

row,Sequence,PBM E-score
1,CCATTCCG,-0.0825
2,ATGTTCTG,-0.0181
3,AAGTCAAG,-0.0673
4,CTTTGAAC,-0.051
5,CGGATTGC,0.0717
6,CACTTCAC,0.0734
7,AGCGCAAC,0.0702
8,GAGAAATA,-0.00553
9,AATAAGGC,0.17
10,ATCCAGAA,0.186
11,ACAGAGTA,0.0108
12,GGGTACCA,-0.202
13,ATCGCCTA,-0.0385
14,ATTAAGAA,0.107
15,CGGTCGAA,0.00971
16,GCATTAGC,-0.0616
17,CAGTCTGA,0.0314
18,GGACCTCC,-0.34
19,ATTCTCCC,-0.017
20,AGTTTATG,0.0187
21,GAGCCGGC,-0.283
22,TCATGAAA,0.0785
23,CGTGAGCC,-0.111
24,CTAAGATA,0.0736
25,CACCTCTC,-0.22

row,Sequence,PBM E-score
1,ATGTGTCG,0.173
2,CAGTTCGG,0.0866
3,GTTTTCGA,0.0512
4,AAAGTTCC,-0.127
5,AACGAAAG,0.0862
6,GGGGTGGA,-0.248
7,CACAAATC,0.0914
8,CATTGGTC,-0.0705
9,AATGTAGT,0.0938
10,ACTTGAGA,-0.00096
11,TCTACAAA,0.0689
12,AATCTTAT,0.15
13,AACATGTA,0.251
14,AGCAATAC,0.0998
15,ACTTTCCG,0.0367
16,ATCAATTA,0.318
17,TGTGTGAA,-0.0332
18,ACCTTGGG,0.0429
19,AGGTGGCG,-0.105
20,CGCCCGTC,-0.0417
21,AATACGGG,-0.0899
22,CTCGGGTA,-0.106
23,ACAGGTCA,-0.152
24,ACAGCGCC,-0.0517
25,AAGACCTA,-0.0868

row,Sequence,PBM E-score
1,ATTCTACG,0.0314
2,GCGCCGCC,-0.0619
3,GTAAGGTA,0.182
4,GTCGGAAA,0.263
5,GTGTACTA,0.133
6,ACATAATC,0.293
7,CTATCTCA,-0.0511
8,AGACTTTC,-0.0313
9,AAACCCCC,-0.429
10,AGAGGAAT,-0.0217
11,CAGTTCTC,-0.0168
12,GATGCGTA,0.0238
13,ATGCCCTG,-0.148
14,CAAGCTTG,-0.132
15,ACCTTCTG,0.103
16,GAGTTCCC,-0.198
17,AGAGTATA,0.0253
18,ATGAGCCG,-0.00302
19,CTGAGTGA,0.0954
20,AGTAGATC,-0.0265
21,CAACAGTA,-0.0872
22,AATATTCA,0.223
23,AAGTCCCA,-0.148
24,AAAGAAAT,0.26
25,CACTTACA,0.179

# Exported with tabs: entries from further up
row	Sequence	PBM E-score
11	CAGTTCTC	-0.0168
12	GATGCGTA	0.0238
13	ATGCCCTG	-0.148
14	CAAGCTTG	-0.132

# Additional records

row,Sequence,PBM E-score
1,CCCTATCC,-0.244
2,GCTGTCGA,-0.237
3,ACCGACAA,-0.0157
4,AAAAAGCG,0.162
5,GGGGCTCA,-0.352
6,AATTTCAT,0.152
7,CGGGACCA,-0.252
8,ATTCCCCG,0.0897
9,CACTGCTG,-0.149
10,CATTTGAG,0.0533
11,GCCCCACA,-0.145
12,AACAAGCC,-0.111
13,AAAGAGCG,0.0786
14,CGTCCTTA,-0.0264
15,GCTATTCC,-0.0279
16,GCGGGTCC,-0.272
17,TCGAACAA,0.171
18,CGTGGGAC,-0.142
19,CTGGCTCA,-0.034
20,AATATAGG,0.25
21,CTCCACGA,-0.1
22,ATGCCTTG,-0.119
